For one molecule, binding results are on record in patent publication US20220041754A1.

In this test the target is anti-CD70 CAR of SEQ ID NO: 6. Kind of test: flow cytometry on anti-CD70 CAR T cells.

These are yes or no findings as the source states them, for the method shown. Some entries that bind do so weakly or less than the wild type.

B1: recombinant 20H05-2D09 antibody (antibody, mouse IgG1, kappa, V domains shown)
VH: QIQLVQSGPELKKPGETVKISCKASGYTFTNYGMHWVKQAPGKVLKWMGWINTYSGVPTYPDDFKGRFAFSLETSASTASLQINNLKNEDTATYFCATERLRGWFPFWGQGTLVTVSA
VL: QIVLTQSPAIMSASPGEKVTISCSASSSVSYMYWYQQKPGSSPKPWIYRTSNLASGVPARFSGSGSGTSYSLTISSMEAEDAATYYCQQYHSYPPTFGGGTKLEIKR
As for B1, the binding result is “binds”.
